The other results are listed elsewhere or left out.
Compound: NC(=O)c1cnc(N[C@@H]2CCCC[C@@H]2N)nc1Nc1cccc(-n2nccn2)c1
Experiment: log2 fold change, soluble protein after heating vs DMSO (PISA); higher = thermal stabilisation; K562 lysate, 10 uM; active = over 0.2 and 3.5 SD of the protein, either way, in both replicates (recomputed)
Method in brief: (§1)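 Thermal stability, expressed as log-two fold change relative to solvent controls, is given from duplicates. Crude K562 extract in PBS pH 7.4 with 1 mM MgCl2, at 1 mg/mL protein, was treated with 10 μM compound for 30 min and heated in aliquots for 3 min across 48°C-58°C. After pooling, adjustment to 0.5% NP-40 at 4°C and centrifugation at 21,000xg for 90 min, supernatant protein was measured by TMTpro 16plex LC-MS/MS with channel sums equalised.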

Amino acid sequences for entries named in this document (tags omitted). A change or cut given only in a name is not applied to a line headed by its entry.
UniProt Q12906, whole entry, looked up: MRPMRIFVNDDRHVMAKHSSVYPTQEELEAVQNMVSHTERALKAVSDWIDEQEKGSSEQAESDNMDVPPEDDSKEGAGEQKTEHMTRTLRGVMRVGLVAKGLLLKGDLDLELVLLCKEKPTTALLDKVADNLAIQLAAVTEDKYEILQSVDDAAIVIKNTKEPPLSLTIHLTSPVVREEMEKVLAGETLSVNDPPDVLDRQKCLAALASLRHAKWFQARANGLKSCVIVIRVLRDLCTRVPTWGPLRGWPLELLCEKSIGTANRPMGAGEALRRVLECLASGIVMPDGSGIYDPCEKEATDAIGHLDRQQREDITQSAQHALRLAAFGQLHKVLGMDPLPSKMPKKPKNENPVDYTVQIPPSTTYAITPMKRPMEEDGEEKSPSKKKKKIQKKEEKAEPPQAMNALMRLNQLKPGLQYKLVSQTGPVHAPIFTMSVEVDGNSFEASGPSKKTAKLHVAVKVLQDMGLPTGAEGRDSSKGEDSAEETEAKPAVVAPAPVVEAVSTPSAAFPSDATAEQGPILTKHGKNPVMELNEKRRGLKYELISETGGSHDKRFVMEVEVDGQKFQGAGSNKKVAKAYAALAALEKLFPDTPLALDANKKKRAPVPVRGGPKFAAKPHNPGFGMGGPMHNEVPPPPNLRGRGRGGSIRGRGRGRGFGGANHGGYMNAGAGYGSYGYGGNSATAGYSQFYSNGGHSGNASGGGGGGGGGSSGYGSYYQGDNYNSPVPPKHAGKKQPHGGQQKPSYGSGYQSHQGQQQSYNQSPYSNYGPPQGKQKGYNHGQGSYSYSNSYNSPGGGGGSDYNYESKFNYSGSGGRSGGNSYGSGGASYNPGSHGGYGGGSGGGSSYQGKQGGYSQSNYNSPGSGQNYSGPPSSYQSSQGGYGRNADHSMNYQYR
UniProt Q70UQ0: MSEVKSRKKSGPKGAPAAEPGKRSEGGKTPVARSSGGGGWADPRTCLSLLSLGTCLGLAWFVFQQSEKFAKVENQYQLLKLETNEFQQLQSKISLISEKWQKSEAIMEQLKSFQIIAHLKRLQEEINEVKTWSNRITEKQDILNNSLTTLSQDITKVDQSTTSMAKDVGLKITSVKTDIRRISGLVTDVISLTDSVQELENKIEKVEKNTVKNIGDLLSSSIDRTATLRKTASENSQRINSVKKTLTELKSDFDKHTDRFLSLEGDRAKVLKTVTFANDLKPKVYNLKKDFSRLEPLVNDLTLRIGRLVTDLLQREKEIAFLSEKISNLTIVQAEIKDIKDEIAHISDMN
UniProt Q8IY31, whole entry, looked up: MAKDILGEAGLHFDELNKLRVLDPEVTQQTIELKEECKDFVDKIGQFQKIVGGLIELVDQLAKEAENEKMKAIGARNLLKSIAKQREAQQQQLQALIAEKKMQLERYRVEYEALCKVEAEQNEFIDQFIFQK
UniProt P22692: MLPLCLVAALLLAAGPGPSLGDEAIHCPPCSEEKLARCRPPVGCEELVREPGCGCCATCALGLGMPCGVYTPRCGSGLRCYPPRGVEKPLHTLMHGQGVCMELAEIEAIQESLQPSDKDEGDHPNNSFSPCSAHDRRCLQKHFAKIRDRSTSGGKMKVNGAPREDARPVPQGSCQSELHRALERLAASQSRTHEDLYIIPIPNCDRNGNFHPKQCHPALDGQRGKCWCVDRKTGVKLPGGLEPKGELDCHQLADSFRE
UniProt O43837: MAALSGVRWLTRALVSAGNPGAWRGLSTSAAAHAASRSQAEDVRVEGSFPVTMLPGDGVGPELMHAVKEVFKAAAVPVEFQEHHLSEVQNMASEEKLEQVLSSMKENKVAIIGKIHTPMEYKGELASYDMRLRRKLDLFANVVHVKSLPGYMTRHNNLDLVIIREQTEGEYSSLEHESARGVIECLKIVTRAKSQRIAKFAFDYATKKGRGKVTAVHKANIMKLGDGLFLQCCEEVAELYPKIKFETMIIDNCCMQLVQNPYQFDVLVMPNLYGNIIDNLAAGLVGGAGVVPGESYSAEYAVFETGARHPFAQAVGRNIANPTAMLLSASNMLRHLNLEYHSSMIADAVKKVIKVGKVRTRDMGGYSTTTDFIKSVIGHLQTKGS
UniProt Q9NSE4: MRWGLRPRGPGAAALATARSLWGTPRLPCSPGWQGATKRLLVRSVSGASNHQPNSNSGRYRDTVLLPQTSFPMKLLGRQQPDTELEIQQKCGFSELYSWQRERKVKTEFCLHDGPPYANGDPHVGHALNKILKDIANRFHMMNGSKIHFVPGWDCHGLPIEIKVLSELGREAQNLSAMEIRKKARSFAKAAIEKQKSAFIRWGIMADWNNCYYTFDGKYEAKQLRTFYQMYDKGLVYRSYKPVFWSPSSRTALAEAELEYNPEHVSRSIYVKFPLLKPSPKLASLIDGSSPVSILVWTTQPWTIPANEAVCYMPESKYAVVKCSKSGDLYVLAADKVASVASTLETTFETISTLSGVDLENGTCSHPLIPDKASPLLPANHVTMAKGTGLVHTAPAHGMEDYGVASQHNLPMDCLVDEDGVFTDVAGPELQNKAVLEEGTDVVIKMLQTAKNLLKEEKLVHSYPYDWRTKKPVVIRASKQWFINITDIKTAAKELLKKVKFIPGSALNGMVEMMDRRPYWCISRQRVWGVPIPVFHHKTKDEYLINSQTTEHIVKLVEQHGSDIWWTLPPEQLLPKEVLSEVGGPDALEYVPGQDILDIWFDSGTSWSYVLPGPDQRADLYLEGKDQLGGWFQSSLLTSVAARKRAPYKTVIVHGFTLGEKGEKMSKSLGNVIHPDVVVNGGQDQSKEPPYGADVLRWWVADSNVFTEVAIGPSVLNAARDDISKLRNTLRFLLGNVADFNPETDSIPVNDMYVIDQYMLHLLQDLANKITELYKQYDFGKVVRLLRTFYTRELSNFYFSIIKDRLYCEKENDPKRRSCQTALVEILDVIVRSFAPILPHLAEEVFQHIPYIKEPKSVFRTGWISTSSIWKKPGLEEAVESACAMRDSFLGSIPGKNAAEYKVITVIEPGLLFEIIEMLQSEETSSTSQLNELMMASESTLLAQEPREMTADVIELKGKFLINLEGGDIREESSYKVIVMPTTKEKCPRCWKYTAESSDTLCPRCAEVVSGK
UniProt Q5T440: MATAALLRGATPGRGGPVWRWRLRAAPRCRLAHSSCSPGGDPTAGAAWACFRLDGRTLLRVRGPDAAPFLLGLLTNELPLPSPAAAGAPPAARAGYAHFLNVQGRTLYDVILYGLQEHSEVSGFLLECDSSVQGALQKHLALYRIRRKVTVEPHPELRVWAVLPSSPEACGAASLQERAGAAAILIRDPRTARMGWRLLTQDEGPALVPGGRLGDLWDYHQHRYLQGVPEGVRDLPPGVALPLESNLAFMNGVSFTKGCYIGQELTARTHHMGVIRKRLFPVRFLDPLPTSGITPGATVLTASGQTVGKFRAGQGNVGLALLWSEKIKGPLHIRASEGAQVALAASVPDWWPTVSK
UniProt P78318: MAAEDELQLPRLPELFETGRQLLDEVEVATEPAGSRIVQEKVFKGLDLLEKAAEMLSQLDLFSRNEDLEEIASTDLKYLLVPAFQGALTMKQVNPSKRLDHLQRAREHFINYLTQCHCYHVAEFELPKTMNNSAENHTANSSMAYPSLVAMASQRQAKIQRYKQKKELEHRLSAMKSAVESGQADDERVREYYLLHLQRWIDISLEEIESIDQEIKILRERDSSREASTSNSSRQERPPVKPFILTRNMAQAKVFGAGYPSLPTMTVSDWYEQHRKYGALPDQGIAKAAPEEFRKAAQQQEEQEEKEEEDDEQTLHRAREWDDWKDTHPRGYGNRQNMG
UniProt P61604, whole entry, looked up: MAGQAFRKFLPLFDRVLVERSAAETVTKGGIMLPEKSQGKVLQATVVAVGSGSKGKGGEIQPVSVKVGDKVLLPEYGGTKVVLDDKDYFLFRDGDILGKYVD
UniProt P11717, whole entry, looked up: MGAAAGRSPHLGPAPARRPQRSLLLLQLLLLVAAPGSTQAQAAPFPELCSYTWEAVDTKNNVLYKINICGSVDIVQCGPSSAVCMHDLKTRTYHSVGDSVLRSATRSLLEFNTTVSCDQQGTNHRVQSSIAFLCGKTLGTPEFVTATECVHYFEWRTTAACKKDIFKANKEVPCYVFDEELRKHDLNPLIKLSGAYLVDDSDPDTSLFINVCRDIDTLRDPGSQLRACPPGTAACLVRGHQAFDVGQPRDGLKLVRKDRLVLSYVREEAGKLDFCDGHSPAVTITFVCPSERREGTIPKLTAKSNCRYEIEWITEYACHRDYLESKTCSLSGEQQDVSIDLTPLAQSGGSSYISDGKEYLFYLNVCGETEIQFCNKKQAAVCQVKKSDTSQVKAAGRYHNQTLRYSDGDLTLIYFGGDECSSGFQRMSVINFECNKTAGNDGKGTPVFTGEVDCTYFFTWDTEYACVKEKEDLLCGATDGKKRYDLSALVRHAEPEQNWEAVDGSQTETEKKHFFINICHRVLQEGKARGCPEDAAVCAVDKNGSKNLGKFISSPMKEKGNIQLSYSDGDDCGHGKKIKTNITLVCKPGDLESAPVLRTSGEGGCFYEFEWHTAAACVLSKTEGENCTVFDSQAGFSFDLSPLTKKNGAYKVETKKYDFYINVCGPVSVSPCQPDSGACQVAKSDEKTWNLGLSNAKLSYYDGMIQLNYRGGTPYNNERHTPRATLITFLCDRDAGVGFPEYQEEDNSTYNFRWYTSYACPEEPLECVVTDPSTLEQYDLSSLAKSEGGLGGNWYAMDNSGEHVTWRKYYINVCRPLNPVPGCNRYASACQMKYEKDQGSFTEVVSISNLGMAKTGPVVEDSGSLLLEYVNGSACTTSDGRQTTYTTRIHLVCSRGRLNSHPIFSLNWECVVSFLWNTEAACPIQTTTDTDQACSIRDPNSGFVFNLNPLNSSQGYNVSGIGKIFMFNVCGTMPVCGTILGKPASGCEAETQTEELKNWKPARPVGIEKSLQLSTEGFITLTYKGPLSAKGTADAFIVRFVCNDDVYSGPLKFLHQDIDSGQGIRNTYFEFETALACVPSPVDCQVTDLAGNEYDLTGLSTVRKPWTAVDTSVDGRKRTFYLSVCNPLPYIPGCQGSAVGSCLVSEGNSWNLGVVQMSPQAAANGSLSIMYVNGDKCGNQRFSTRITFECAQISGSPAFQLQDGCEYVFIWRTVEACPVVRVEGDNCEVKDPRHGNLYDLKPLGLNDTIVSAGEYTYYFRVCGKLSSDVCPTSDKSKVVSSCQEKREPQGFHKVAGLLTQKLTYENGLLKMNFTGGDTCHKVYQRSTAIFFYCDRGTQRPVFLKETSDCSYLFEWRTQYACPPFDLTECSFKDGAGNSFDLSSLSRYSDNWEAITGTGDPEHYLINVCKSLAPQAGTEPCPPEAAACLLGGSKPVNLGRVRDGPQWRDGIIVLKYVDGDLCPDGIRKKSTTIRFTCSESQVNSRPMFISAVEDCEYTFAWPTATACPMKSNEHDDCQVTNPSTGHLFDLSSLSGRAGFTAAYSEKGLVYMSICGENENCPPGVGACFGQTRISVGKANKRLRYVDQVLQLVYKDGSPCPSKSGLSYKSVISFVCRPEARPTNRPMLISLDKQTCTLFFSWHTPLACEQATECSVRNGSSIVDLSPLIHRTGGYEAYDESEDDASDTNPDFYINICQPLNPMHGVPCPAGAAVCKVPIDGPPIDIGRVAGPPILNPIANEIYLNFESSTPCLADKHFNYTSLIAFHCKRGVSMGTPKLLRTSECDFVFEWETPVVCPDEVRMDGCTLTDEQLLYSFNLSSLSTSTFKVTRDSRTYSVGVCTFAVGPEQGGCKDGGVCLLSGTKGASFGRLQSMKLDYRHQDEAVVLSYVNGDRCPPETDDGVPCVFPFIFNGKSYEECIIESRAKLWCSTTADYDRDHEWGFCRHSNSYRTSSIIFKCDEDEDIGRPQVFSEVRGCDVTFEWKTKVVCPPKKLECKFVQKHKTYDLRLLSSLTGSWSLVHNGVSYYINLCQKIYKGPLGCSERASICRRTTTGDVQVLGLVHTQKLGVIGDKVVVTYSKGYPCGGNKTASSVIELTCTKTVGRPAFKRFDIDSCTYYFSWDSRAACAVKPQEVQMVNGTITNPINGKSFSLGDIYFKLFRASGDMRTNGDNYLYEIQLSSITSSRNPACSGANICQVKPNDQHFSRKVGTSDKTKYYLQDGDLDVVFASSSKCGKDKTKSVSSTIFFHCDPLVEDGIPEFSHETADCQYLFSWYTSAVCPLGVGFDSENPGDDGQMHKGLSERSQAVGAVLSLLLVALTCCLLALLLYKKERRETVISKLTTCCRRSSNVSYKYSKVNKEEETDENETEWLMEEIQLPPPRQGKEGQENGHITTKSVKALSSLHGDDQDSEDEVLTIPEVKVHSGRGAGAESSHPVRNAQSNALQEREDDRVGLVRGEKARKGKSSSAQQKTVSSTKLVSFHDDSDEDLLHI
UniProt Q8NBZ0, whole entry, looked up: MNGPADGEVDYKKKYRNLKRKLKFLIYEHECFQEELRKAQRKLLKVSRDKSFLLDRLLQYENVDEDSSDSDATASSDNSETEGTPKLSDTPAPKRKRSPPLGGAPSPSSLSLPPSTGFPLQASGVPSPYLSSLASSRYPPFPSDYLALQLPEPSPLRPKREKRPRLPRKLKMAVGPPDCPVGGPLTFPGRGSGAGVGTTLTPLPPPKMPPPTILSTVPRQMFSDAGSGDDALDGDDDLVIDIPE

log2 fold change, inactive:
ILF3 isoform 7 (UniProt Q12906) -0.004, IARS (UniProt P41252) 0.001, HSPA8 (UniProt E9PN89) 0.084, IKBIP (UniProt Q70UQ0) -0.024, IFT20 isoform 2 (UniProt Q8IY31) -0.044

Compound: NC1(c2ccc(-c3nc4ccn5c(=O)[nH]nc5c4cc3-c3ccccc3)cc2)CCC1
Experiment: as above
Method in brief: as §1

log2 fold change, inactive:
ICE2 (UniProt Q659A1) 0.009, IGFBP4 (UniProt P22692) -0.026, INF2 (UniProt Q27J81) -0.035, IDH3B (UniProt O43837) 0.014, IGSF3 (UniProt O75054) -0.027, ICAM1 (UniProt P05362) 0.012, INPPL1 (UniProt O15357) 0.003, HSPA8 (UniProt E9PK54) 0.004, HUS1 (UniProt O60921) -0.022, IARS2 (UniProt Q9NSE4) -0.004, IBA57 (UniProt Q5T440) -0.02, ING3 (UniProt Q9NXR8) 0.052, IGBP1 (UniProt P78318) 0.011, IFT80 isoform 3 (UniProt Q9P2H3) -0.031, HSPE1 (UniProt P61604) -0.003, IGF2R (UniProt P11717) 0.001, HTRA2 (UniProt O43464) 0.005, INPP1 (UniProt P49441) 0.003, IKZF1 (UniProt Q13422) -0.016, INO80E (UniProt Q8NBZ0) -0.153, INPP4A (UniProt Q96PE3) 0.032, HYOU1 (UniProt J3QL06) -0.164, IMPACT (UniProt Q9P2X3) 0.087, ILF3 isoform 7 (UniProt Q12906) 0.01, IARS (UniProt P41252) -0.029, HSPA8 (UniProt E9PN89) -0.089, IKBIP (UniProt Q70UQ0) -0.026, IFT20 isoform 2 (UniProt Q8IY31) -0.026
